Test results taken from PMC8455679.
Read-outs that look alike come from different tables or passages of the source. Results are given in words; binding and its absence hold for the method and conditions named. In cells and extracts the contact can be indirect. Some binding calls cover weakened binding; strength is not graded here.

Sequences of proteins named here, by UniProt entry; tags and fusion partners are left off.
UniProt P18583: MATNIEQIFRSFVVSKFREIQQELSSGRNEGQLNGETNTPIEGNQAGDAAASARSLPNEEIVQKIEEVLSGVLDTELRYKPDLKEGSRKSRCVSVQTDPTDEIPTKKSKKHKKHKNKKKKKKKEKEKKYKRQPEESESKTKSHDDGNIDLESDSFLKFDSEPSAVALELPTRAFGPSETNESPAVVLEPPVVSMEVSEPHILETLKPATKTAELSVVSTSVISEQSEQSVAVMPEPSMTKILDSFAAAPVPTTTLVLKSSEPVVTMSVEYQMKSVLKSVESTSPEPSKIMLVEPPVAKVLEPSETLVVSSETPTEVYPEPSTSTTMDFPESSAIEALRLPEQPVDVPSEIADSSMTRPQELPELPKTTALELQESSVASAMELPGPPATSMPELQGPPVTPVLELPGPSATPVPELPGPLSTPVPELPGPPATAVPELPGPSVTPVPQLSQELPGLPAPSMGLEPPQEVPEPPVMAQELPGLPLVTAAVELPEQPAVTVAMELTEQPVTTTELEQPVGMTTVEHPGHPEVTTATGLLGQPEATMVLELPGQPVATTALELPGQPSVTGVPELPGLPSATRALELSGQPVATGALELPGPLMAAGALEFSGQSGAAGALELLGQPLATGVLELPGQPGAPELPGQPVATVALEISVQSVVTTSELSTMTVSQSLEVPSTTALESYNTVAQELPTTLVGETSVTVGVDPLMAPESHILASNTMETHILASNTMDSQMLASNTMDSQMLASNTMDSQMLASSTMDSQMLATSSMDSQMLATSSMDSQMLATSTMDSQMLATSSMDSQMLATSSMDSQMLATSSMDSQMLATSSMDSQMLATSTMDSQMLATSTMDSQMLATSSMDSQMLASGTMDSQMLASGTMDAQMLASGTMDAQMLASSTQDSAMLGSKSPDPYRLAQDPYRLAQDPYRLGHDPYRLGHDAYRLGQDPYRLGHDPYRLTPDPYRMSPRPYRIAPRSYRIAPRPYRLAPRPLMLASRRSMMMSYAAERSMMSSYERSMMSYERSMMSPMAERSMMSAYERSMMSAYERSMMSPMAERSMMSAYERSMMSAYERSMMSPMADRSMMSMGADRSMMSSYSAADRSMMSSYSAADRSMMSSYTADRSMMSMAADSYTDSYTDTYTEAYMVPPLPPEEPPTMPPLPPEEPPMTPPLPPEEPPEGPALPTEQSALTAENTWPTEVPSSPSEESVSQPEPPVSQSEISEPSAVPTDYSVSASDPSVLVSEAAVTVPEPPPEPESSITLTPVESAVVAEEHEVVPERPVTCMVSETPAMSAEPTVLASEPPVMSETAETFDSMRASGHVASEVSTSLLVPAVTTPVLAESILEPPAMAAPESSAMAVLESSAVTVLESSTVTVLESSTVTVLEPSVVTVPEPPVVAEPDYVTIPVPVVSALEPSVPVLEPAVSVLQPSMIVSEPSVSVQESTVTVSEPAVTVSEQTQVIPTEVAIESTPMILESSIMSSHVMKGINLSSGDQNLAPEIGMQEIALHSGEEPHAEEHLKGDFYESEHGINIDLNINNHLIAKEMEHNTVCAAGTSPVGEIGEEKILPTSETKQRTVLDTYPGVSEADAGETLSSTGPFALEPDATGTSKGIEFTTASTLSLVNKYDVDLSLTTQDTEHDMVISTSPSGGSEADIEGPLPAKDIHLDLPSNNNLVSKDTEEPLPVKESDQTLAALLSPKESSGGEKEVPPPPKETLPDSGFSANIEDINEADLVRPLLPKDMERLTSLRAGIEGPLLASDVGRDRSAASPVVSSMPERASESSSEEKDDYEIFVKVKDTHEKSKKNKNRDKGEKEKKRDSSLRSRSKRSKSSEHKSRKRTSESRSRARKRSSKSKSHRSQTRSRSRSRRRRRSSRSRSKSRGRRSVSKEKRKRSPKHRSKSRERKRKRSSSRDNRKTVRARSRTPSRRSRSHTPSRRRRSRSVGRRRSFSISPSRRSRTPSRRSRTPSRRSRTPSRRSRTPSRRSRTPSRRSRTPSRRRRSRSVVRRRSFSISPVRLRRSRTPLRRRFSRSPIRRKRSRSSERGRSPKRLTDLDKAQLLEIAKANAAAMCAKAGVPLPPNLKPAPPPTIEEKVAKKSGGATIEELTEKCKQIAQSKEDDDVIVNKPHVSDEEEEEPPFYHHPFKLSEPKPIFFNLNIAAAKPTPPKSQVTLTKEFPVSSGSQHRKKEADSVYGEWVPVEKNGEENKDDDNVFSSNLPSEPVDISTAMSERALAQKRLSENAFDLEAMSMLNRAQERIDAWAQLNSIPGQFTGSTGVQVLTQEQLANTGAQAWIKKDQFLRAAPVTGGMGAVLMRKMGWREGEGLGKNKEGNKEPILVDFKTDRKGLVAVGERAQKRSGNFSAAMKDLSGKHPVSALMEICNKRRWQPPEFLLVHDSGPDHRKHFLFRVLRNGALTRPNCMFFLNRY

How the values were obtained:
Test in all cases: co-IP; U87MG cell lysates (50 mM Tris-HCl pH 8.0, 150 mM NaCl, 0.5% NP-40, 10% glycerol, 50 U/mL benzonase) immunoprecipitated with rabbit IgG, SON antibody or RBFOX2 antibody and protein A-Sepharose at 4 °C overnight; Western blot
[1] = biological target: T1, RBFOX2 (human (endogenous in U87MG)) (UniProt O43251)
T1 sequence: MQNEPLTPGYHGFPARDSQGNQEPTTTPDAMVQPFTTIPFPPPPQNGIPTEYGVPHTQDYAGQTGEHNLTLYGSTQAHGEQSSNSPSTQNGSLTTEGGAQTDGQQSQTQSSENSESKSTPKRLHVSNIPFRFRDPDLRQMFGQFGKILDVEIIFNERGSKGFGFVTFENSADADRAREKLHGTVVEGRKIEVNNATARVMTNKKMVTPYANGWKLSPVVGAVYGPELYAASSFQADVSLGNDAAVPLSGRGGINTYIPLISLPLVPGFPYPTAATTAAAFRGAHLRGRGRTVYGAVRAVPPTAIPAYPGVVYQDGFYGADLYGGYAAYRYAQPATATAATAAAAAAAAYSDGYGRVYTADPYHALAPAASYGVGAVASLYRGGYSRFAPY

[2] = biological target: SON (human (endogenous in U87MG)) (UniProt P18583)
[3] = substrate: SON (human (endogenous in U87MG)) (UniProt P18583); remark: listed apart in the source

| Molecule | binding [1] | binding [2] | binding [3] |
| --- | --- | --- | --- |
| hnRNP K (from UniProt P61978 1-463) | no binding | binds |  |
| hnRNP M (protein, UniProt P52272 1-730) MAAGVEAAAEVAATEIKMEEESGAPGVPSGNGAPGPKGEGERPAQNEKRKEKNIKRGGNRFEPYANPTKRYRAFITNIPFDVKWQSLKDLVKEKVGEVTYVELLMDAEGKSRGCAVVEFKMEESMKKAAEVLNKHSLSGRPLKVKEDPDGEHARRAMQKVMATTGGMGMGPGGPGMITIPPSILNNPNIPNEIIHALQAGRLGSTVFVANLDYKVGWKKLKEVFSMAGVVVRADILEDKDGKSRGIGTVTFEQSIEAVQAISMFNGQLLFDRPMHVKMDERALPKGDFFPPERPQQLPHGLGGIGMGLGPGGQPIDANHLNKGIGMGNIGPAGMGMEGIGFGINKMGGMEGPFGGGMENMGRFGSGMNMGRINEILSNALKRGEIIAKQGGGGGGGSVPGIERMGPGIDRLGGAGMERMGAGLGHGMDRVGSEIERMGLVMDRMGSVERMGSGIERMGPLGLDHMASSIERMGQTMERIGSGVERMGAGMGFGLERMAAPIDRVGQTIERMGSGVERMGPAIERMGLSMERMVPAGMGAGLERMGPVMDRMATGLERMGANNLERMGLERMGANSLERMGLERMGANSLERMGPAMGPALGAGIERMGLAMGGGGGASFDRAIEMERGNFGGSFAGSFGGAGGHAPGVARKACQIFVRNLPFDFTWKMLKDKFNECGHVLYADIKMENGKSKGCGVVKFESPEVAERACRMMNGMKLSGREIDVRIDRNA | binds |  | binds |
| RBFOX2 (protein, UniProt O43251 1-390) MQNEPLTPGYHGFPARDSQGNQEPTTTPDAMVQPFTTIPFPPPPQNGIPTEYGVPHTQDYAGQTGEHNLTLYGSTQAHGEQSSNSPSTQNGSLTTEGGAQTDGQQSQTQSSENSESKSTPKRLHVSNIPFRFRDPDLRQMFGQFGKILDVEIIFNERGSKGFGFVTFENSADADRAREKLHGTVVEGRKIEVNNATARVMTNKKMVTPYANGWKLSPVVGAVYGPELYAASSFQADVSLGNDAAVPLSGRGGINTYIPLISLPLVPGFPYPTAATTAAAFRGAHLRGRGRTVYGAVRAVPPTAIPAYPGVVYQDGFYGADLYGGYAAYRYAQPATATAATAAAAAAAAYSDGYGRVYTADPYHALAPAASYGVGAVASLYRGGYSRFAPY |  |  | no binding |
